Reference: paper PMC9463131, “SLITRK1-mediated noradrenergic projection suppression in the neonatal prefrontal cortex” (Communications Biology, 2022)

Sequences of proteins named here, by UniProt entry; tags and fusion partners are left off. Residues count along the entry.
UniProt P11627, residues 20-1260: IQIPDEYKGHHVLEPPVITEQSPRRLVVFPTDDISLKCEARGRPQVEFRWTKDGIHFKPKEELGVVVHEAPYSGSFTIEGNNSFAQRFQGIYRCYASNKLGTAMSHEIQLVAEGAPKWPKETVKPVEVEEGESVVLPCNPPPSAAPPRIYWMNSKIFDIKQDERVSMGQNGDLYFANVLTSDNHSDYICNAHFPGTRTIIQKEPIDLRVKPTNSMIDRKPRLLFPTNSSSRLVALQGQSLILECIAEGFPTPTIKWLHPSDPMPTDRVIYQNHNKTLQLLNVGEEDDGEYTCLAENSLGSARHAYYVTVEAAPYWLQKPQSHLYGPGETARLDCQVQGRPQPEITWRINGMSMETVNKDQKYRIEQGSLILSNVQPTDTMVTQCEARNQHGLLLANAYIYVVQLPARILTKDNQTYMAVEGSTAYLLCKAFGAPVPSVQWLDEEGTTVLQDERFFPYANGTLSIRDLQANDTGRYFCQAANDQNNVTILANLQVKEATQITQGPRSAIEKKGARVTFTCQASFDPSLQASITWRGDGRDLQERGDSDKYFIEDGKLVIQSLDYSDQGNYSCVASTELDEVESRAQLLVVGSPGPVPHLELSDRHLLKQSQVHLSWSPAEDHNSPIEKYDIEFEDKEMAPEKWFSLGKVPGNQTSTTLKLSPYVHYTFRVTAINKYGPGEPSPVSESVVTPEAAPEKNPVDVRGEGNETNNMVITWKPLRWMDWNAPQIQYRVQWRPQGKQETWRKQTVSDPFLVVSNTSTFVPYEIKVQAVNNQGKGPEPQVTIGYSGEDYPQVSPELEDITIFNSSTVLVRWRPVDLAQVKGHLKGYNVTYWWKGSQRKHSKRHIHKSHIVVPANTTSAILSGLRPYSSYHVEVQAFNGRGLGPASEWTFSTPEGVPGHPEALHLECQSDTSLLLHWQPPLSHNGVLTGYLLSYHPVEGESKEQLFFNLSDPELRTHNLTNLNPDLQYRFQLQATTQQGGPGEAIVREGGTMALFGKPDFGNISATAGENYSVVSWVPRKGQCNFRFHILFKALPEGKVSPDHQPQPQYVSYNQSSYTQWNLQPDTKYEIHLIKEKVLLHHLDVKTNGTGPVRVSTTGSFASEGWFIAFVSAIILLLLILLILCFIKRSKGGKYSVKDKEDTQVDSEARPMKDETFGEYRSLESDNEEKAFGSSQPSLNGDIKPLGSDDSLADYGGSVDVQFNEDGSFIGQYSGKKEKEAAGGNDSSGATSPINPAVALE
UniProt P13595, residues 20-1115: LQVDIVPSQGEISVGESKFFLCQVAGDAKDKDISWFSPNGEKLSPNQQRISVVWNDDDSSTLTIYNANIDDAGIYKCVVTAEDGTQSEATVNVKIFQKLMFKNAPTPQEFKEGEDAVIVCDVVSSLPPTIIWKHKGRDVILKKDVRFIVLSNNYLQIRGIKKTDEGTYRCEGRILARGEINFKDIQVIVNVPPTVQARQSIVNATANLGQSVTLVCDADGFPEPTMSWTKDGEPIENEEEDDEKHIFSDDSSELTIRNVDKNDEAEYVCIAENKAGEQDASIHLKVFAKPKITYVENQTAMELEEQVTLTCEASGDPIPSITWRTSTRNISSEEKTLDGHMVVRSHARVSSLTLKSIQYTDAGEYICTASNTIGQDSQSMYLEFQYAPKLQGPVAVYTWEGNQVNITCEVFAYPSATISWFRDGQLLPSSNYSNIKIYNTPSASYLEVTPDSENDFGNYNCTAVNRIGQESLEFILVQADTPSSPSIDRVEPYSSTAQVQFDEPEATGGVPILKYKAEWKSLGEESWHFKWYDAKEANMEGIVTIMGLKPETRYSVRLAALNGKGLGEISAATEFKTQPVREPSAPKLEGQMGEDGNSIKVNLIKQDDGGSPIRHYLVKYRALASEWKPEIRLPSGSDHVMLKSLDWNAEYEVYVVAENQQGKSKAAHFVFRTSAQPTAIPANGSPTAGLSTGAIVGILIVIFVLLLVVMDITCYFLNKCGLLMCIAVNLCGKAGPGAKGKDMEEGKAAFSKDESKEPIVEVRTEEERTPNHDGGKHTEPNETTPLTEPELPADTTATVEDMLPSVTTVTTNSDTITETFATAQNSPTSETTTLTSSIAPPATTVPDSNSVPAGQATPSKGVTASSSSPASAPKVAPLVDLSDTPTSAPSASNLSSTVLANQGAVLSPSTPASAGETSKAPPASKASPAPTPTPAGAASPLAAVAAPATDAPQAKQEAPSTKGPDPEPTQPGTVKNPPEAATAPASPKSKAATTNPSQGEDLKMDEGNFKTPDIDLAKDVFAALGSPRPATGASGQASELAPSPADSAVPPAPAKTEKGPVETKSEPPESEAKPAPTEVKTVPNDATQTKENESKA

Biological target: T1, Slitrk1 (endogenous, mouse brain) (mouse (endogenous in mouse brain)) (UniProt Q810C1)
T1 sequence: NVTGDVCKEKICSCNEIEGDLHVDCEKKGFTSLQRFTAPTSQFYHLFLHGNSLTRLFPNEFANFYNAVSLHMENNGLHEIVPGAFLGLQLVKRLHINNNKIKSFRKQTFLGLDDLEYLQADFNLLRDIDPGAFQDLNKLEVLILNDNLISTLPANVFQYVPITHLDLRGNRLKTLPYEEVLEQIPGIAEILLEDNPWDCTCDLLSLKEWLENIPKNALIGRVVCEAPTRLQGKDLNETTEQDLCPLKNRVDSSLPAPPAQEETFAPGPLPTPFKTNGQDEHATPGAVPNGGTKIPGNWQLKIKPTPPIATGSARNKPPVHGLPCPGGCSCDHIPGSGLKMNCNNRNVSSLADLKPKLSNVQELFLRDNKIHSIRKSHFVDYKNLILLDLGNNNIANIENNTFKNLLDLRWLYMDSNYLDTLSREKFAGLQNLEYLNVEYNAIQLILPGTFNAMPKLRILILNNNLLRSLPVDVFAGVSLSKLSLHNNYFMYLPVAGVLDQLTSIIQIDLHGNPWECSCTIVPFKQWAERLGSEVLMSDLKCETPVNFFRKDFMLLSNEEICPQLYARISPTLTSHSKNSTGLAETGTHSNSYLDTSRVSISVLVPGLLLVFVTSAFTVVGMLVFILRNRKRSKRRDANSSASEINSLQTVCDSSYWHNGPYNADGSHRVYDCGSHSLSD
Experiment: affinity purification with mass spectrometry; mouse brain membrane fraction lysed in PBS with 0.5% Triton X-100; anti-SLITRK1 C-terminus rabbit antibody or normal rabbit IgG overnight at 4 °C, protein G agarose; 200 kDa and 100 kDa CBB-stained bands excised, MALDI-TOF MS

Molecule | binding
L1CAM (endogenous, mouse brain) (from UniProt P11627 20-1260) | binds
neural cell adhesion molecule (NCAM) (endogenous, mouse brain) (from UniProt P13595 20-1115) | binds
Dynamin1 (endogenous, mouse brain) (protein, UniProt P39053 1-867) MGNRGMEDLIPLVNRLQDAFSAIGQNADLDLPQIAVVGGQSAGKSSVLENFVGRDFLPRGSGIVTRRPLVLQLVNSTTEYAEFLHCKGKKFTDFEEVRLEIEAETDRVTGTNKGISPVPINLRVYSPHVLNLTLVDLPGMTKVPVGDQPPDIEFQIRDMLMQFVTKENCLILAVSPANSDLANSDALKIAKEVDPQGQRTIGVITKLDLMDEGTDARDVLENKLLPLRRGYIGVVNRSQKDIDGKKDITAALAAERKFFLSHPSYRHLADRMGTPYLQKVLNQQLTNHIRDTLPGLRNKLQSQLLSIEKEVDEYKNFRPDDPARKTKALLQMVQQFAVDFEKRIEGSGDQIDTYELSGGARINRIFHERFPFELVKMEFDEKELRREISYAIKNIHGIRTGLFTPDMAFETIVKKQVKKIREPCLKCVDMVISELISTVRQCTKKLQQYPRLREEMERIVTTHIREREGRTKEQVMLLIDIELAYMNTNHEDFIGFANAQQRSNQMNKKKTSGNQDEILVIRKGWLTINNIGIMKGGSKEYWFVLTAENLSWYKDDEEKEKKYMLSVDNLKLRDVEKGFMSSKHIFALFNTEQRNVYKDYRQLELACETQEEVDSWKASFLRAGVYPERVGDKEKASETEENGSDSFMHSMDPQLERQVETIRNLVDSYMAIVNKTVRDLMPKTIMHLMINNTKEFIFSELLANLYSCGDQNTLMEESAEQAQRRDEMLRMYHALKEALSIIGDINTTTVSTPMPPPVDDSWLQVQSVPAGRRSPTSSPTPQRRAPAVPPARPGSRGPAPGPPPAGSALGGAPPVPSRPGASPDPFGPPPQVPSRPNRAPPGVPSLGAWRLNSPQGKHENRAGKARL | binds
Neurofascin (endogenous, mouse brain) (protein, UniProt Q810U3 25-1240) IEIPMDPSIQNELTQPPTITKQSVKDHIVDPRDNILIECEAKGNPAPSFHWTRNSRFFNIAKDPRVSMRRRSGTLVIDFRSGGRPEEYEGEYQCFARNKFGTALSNRIRLQVSKSPLWPKENLDPVVVQEGAPLTLQCNPPPGLPSPVIFWMSSSMEPITQDKRVSQGHNGDLYFSNVMLQDMQTDYSCNARFHFTHTIQQKNPFTLKVLTTRGVAERTPSFMYPQGTSSSQMVLRGMDLLLECIASGVPTPDIAWYKKGGDLPSNKAKFENFNKALRITNVSEEDSGEYFCLASNKMGSIRHTISVRVKAAPYWLDEPKNLILAPGEDGRLVCRANGNPKPTVQWMVNGEPLQSAPPNPNREVAGDTIIFRDTQISSRAVYQCNTSNEHGYLLANAFVSVLDVPPRMLSARNQLIRVILYNRTRLDCPFFGSPIPTLRWFKNGQGSNLDGGNYHVYENGSLEIKMIRKEDQGIYTCVATNILGKAENQVRLEVKDPTRIYRMPEDQVAKRGTTVQLECRVKHDPSLKLTVSWLKDDEPLYIGNRMKKEDDSLTIFGVAERDQGSYTCMASTELDQDLAKAYLTVLADQATPTNRLAALPKGRPDRPRDLELTDLAERSVRLTWIPGDDNNSPITDYVVQFEEDQFQPGVWHDHSRFPGSVNSAVLHLSPYVNYQFRVIAVNEVGSSHPSLPSERYRTSGAPPESNPSDVKGEGTRKNNMEITWTPMNATSAFGPNLRYIVKWRRRETRETWNNVTVWGSRYVVGQTPVYVPYEIRVQAENDFGKGPEPDTIIGYSGEDLPSAPRRFRVRQPNLETINLEWDHPEHPNGILIGYILRYVPFNGTKLGKQMVENFSPNQTKFSVQRADPVSRYRFSLSARTQVGSGEAATEESPAPPNEATPTAAPPTLPPTTVGTTGLVSSTDATALAATSEATTVPIIPTVVPTTVATTIATTTTTTAATTTTTTTESPPTTTAGTKIHETAPDEQSIWNVTVLPNSKWANITWKHNFRPGTDFVVEYIDSNHTKKTVPVKAQAQPIQLTDLFPGMTYTLRVYSRDNEGISSTVITFMTSTAYTNNQADIATQGWFIGLMCAIALLVLILLIVCFIKRSRGGKYPVREKKDVPLGPEDPKEEDGSFDYSDEDNKPLQGSQTSLDGTIKQQESDDSLVDYGEGGEGQFNEDGSFIGQYTVKKDKEETEGNESSEATSPVNAIYSLA | binds

These are yes or no findings as the source states them, for the method shown. In cells and extracts the contact can be indirect. These calls come from enrichment with a bait or labelling near it, and not all partners need be listed.
